The chains behind the UniProt entries cited, without tags or fusion partners. Where a name states a change or a piece, a line headed by the entry shows the natural chain unless it says otherwise.
UniProt P69720: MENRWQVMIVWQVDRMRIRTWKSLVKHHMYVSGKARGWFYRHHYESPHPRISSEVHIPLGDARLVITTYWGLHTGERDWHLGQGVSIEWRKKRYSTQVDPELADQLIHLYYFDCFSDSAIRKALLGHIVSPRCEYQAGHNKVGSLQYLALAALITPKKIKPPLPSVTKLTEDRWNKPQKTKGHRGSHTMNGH
UniProt P69721: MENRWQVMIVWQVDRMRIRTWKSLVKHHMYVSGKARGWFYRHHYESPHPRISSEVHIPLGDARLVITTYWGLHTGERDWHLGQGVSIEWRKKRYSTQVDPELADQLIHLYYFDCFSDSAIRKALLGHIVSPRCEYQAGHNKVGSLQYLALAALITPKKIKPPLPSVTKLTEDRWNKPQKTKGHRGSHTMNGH
UniProt P69722: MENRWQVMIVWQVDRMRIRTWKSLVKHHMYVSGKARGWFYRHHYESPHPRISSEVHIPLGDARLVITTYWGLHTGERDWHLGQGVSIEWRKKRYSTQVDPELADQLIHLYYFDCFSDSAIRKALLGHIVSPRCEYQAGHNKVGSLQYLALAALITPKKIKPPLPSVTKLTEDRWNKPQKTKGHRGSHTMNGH
UniProt P69723: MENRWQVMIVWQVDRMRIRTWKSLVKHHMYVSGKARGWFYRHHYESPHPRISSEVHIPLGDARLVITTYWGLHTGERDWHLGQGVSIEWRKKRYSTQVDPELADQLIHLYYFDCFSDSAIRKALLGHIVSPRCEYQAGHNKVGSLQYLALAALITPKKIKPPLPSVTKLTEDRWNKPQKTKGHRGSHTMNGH
UniProt Q9HC16: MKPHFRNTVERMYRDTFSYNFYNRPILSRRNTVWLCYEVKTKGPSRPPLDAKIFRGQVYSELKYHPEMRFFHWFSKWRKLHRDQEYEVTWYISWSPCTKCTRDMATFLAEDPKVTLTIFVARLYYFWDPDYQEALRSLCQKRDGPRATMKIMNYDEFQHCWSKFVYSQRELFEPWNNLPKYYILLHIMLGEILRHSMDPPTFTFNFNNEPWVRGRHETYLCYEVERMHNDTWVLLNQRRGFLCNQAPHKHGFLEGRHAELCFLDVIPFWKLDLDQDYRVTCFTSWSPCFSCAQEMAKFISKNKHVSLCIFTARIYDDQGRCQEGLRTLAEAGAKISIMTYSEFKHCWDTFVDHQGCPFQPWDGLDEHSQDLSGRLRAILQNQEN

Where “and” joins values, the source holds several entries; their conditions need not be identical. Equal values may be shown once. Screen size: about 260,000 compounds; about 1,500 (0.58%) were called active. Inconclusive results, whose numbers are uncertain, are shown with a selection of clear calls.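 The calls were made as follows: active = inhibition above a set limit at one or more doses, reproduced on every date tested; inconclusive = results disagree between test dates, or hit never tested in dose response; inactive = the rest.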
What follows are compounds tested against Virion infectivity factor (Human immunodeficiency virus type 1 group M subtype B (isolate BH10)) + Virion infectivity factor (Human immunodeficiency virus type 1 group M subtype B (isolate BRU/LAI)) + Virion infectivity factor (Human immunodeficiency virus type 1 group M subtype B (isolate PCV12)) + Virion infectivity factor (Human immunodeficiency virus type 1 group M subtype B (isolate HXB2)) + DNA dC->dU-editing enzyme APOBEC-3G (Homo sapiens) (UniProt P69720+P69721+P69722+P69723+Q9HC16) (assay: inhibitors of Vif binding to APOBEC3G peptide, primary screen, biochemical, TR-FRET, GST-Vif 1-94, biotin-A3G peptide, dose response retest (AID 1117319;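 also: Vif residues 1-94 fused to GST binding biotinylated APOBEC3G peptide 110-148; 0% = full assay without inhibitor and 100% = GST in place of GST-Vif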)). Settings: hits give high values.
`Cc1cccc(/C=C/C(=O)c2cc(Br)ccc(=O)c2O)c1` was tested, and the inhibition was inconclusive: 59%.
`CCOc1ccccc1C(=O)Nc1cc(C(=O)NCCc2ccccc2)ccc1Cl` was tested, and the inhibition was inconclusive: 43.9%.
In the case of `CC(OC(=O)Cc1coc2cc3c(cc12)CCC3)C(=O)NCc1ccc2c(c1)OCO2` (stereo not drawn), the inhibition is reported as inconclusive: 51.1%.
In the case of `CC1CN(Cc2cn(C)nc2-c2ccc(Oc3ccccc3)cc2)CCN1C` (stereo not drawn), the inhibition is reported as inconclusive: 42.3%.
`CN(C)CCC(c1ccc(Br)cc1)c1ccccn1` (stereo not drawn) was tested, and the inhibition was inconclusive: 36.3%.
In the case of `COc1ccc2c(c1)CCN(C(=O)CCl)C2C1C(=O)CCCC1=O` (stereo not drawn), the inhibition is reported as inconclusive: 39.4%.
`COCCN1C(=O)c2[nH]nc(-c3ccccc3O)c2C1c1ccc(OC)cc1` (stereo not drawn) was tested, and the inhibition was inactive: 4.2%.
`O=C1C2CC=CCC2C(=O)N1c1ncn[nH]1` (stereo not drawn) was tested, and the inhibition was inactive: 0.84%.
For `CCN(CC)S(=O)(=O)c1cccc(C(=O)N/N=C/c2ccccn2)c1`, the inhibition was inconclusive: 39.6%.
With `O=C(Cn1nnc(-c2ccccc2F)n1)Nc1ccc(C(=O)N2CCOCC2)cc1` the inhibition was inconclusive: 37.4%.
For `Cc1ccc2nc(-c3ccc(NC(=O)COC(=O)c4ccc(=O)[nH]c4)cc3)sc2c1`, the inhibition was inconclusive: 39.7%.
For `Cc1cc(=O)oc2cc(Oc3ccc(C(N)=O)cc3[N+](=O)[O-])ccc12`, the inhibition was inconclusive: 57.6%.
In the case of `CCCN1C(=O)NC2(O)C(=O)c3ccccc3C12O` (stereo not drawn), the inhibition is reported as inconclusive: 39.2%.
`O=C1c2ccccc2-c2onc3ccc(Oc4ccccc4)c1c23` was tested, and the inhibition was inconclusive: 54.3%.
For `COc1ccc(NC(=O)NNC(=O)c2ccc(Cl)cc2Cl)cc1OC`, the inhibition was inactive: 0.67%.
In the case of `COc1nc(NCCC2=CCCCC2)nc(OC)n1`, the inhibition is reported as inactive: -1.44%.
For `O=C(O)CCC(=O)N1CC=C(c2ccccc2)CC1`, the inhibition was inconclusive: 61.5%.
`C[C@H](NC(=O)c1[nH]cnc1C(=O)Nc1ccccc1)C(=O)OC(C)(C)C` was tested, and the inhibition was inconclusive: 33.2%.
`N#CC(=C1CCCC1)c1nc(-c2ccccc2O)cs1` was tested, and the inhibition was inconclusive: 33.8%.
`Fc1ccc(-n2c(CN3CCCCC3)n[nH]c2=S)cc1` was tested, and the inhibition was inconclusive: 33.7%.
In the case of `Cc1ccc(S(=O)(=O)n2nnc3ccccc32)c(C)c1C`, the inhibition is reported as inconclusive: 47.6%.
With `Cc1c(Nc2nc3ccccc3nc2NS(=O)(=O)c2ccccc2)c(=O)n(-c2ccccc2)n1C` the inhibition was inconclusive: 36.3%.
In the case of `Oc1ccc(/C=N/Nc2cc(N3CCCC3)nc(N3CCCC3)n2)cc1O`, the inhibition is reported as inconclusive: 43.2%.
`CC(C)C1Cc2c(sc3c2c(=O)n(Cc2ccccc2)c2nncn32)CO1` (stereo not drawn) was tested, and the inhibition was inconclusive: 56.3%.
In the case of `CC1CCC2(CC1)NC(=O)N(CC(=O)NCc1ccc(Cl)cc1)C2=O` (stereo not drawn), the inhibition is reported as inactive: -14%.
With `CC(C)CN=Cc1c(O)c([N+](=O)[O-])cc2oc3c(c12)CCCC3` the inhibition was inconclusive: 34.4%.
For `CCOC(=O)C1C(c2ccccc2)NC(=S)NC1(C)O` (stereo not drawn), the inhibition was inconclusive: 55.5%.
For `CCc1ccc(NC(=O)COc2ccc(/C=C(/C#N)c3nc4ccccc4[nH]3)cc2OC)cc1`, the inhibition was inconclusive: 43.7%.
For `O=C1Nc2cc(Cl)c(Cl)cc2N(O)N1c1ccc(Cl)c(Cl)c1`, the inhibition was inconclusive: 37.7%.
In the case of `Cc1ccc(SCC(=O)c2ccc(CC(=O)O)s2)cc1`, the inhibition is reported as inconclusive: 34.6%.
With `COc1cccc(NC(=O)CC(C)=O)c1` the inhibition was inactive: 3.45%.
For `Cc1cc(-c2nnc(CCC(=O)NC(C)c3ccccc3Cl)o2)no1` (stereo not drawn), the inhibition was inconclusive: 56.8%.
In the case of `O=C(O)c1cccc(-c2ccc(/C=c3/sc4nc5ccccc5n4c3=O)o2)c1`, the inhibition is reported as inconclusive: 43.8%.
In the case of `O=C1SC(SCc2ccccc2)=N/C1=C\c1ccco1`, the inhibition is reported as inconclusive: 59.9%.
In the case of `COc1ccc(NC(=O)Nc2cccs2)cc1Cl`, the inhibition is reported as inactive: 3.45%.
In the case of `CCC1CCCCN1C(=O)c1ccccc1OC1CCN(S(C)(=O)=O)CC1` (stereo not drawn), the inhibition is reported as inactive: 6.69%.
In the case of `CC(C)(C)c1cc(C(F)(F)F)c(C#N)c(=O)[nH]1`, the inhibition is reported as inconclusive: 33.4%.
For `CC1=C(C#N)C(NC(=O)C(C)(C)C)(C(F)(F)F)C(=O)N1` (stereo not drawn), the inhibition was inconclusive: 59.2%.
`O=C(COc1ccc(Cl)cc1Br)N1CCN(c2ccccc2)CC1` was tested, and the inhibition was inconclusive: 38.5%.
`CCN(CC)S(=O)(=O)c1ccc(N/N=C/c2cccnc2)nc1` was tested, and the inhibition was inconclusive: 43.6%.
With `COc1cccc(-c2nc3n(n2)C(c2ccc4c(c2)OCO4)C(C(N)=O)=C(C)N3)c1` (stereo not drawn) the inhibition was inconclusive: 37.9%.
For `Cc1cc(C(=O)CN2CCC(C)CC2)c(C)n1-c1ccc(F)cc1`, the inhibition was inconclusive: 44.6%.
In the case of `Clc1ccc2oc(-c3ccccn3)nc2c1`, the inhibition is reported as inconclusive: 25.3%.
In the case of `Cn1cnnc1Sc1ccc(C(=O)OCC(=O)NCC(F)(F)F)cc1[N+](=O)[O-]`, the inhibition is reported as inconclusive: 37.7%.
In the case of `CCOc1ccccc1NC(=O)COn1nnc2ccc(Cl)cc21`, the inhibition is reported as inconclusive: 42.6%.
`CCOc1ccc(CCN2C(=O)c3cccnc3C2=O)cc1OCC` was tested, and the inhibition was inconclusive: 48.9%.
`Oc1ccccc1CN1CCCN(Cc2ccccc2O)C1` was tested, and the inhibition was inconclusive: 47.3%.
With `COCCNC(=O)NC1(C(F)(F)F)Oc2ccc(Cl)cc2O1` (stereo not drawn) the inhibition was inconclusive: 33.2%.
With `Cc1cc(C)n(CC(=O)NNC(=O)c2ccc(S(C)(=O)=O)cc2)n1` the inhibition was inactive: -6.9%.
For `C[C@@](Cc1ccc(O)c(O)c1)(NN)C(=O)O`, the inhibition was inconclusive: 54.8%.
`CCOC(=O)C1=C(N)n2c(s/c(=C\c3cccs3)c2=O)=C(C(=O)OCC)C1c1cccs1` (stereo not drawn) was tested, and the inhibition was inactive: -6.07% and inactive: -0.48%.
In the case of `COCC(=O)Nc1cc([N+](=O)[O-])ccc1C`, the inhibition is reported as inconclusive: 44.2%.
With `OCn1ncn(-c2ccccc2)c1=S` the inhibition was inconclusive: 33.1%.
For `CCN(CC)CCN(Cc1cc2cc3c(cc2[nH]c1=O)OCCO3)C(=O)NC1CCCCC1`, the inhibition was inconclusive: 46.7%.
With `O=C(NC(=S)NNS(=O)(=O)c1ccccc1)c1ccc([N+](=O)[O-])cc1` the inhibition was inconclusive: 44.6%.
With `CC(=O)N1CCN(C(=O)CCNC(=O)c2ccc(Br)cc2)CC1` the inhibition was inactive: 0.92%.
With `COc1ccccc1N1CCN(C(=O)c2ccc(S(=O)(=O)N3CCCC3)cc2)CC1` the inhibition was inconclusive: 8.24%.
With `S=c1nc(C2COc3ccccc3O2)[nH][nH]1` (stereo not drawn) the inhibition was inconclusive: 42.4%.

Reference: PubChem BioAssay AID1117319 (Southern Research Institute, 2015)
